{"sequences": {"note": "Sequences of proteins named here, by UniProt entry; tags and fusion partners are left off. A change or cut given only in a name is not applied to a line headed by its entry. A line that says so, or that is headed by a name, gives the form on record, which may keep a tag or linker.", "VEGF165 (P15692, form named)": "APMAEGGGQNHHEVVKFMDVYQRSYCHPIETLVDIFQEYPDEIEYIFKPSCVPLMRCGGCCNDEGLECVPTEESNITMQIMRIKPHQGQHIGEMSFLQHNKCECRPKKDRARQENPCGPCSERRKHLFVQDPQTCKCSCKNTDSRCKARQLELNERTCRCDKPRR", "UniProt P49767": "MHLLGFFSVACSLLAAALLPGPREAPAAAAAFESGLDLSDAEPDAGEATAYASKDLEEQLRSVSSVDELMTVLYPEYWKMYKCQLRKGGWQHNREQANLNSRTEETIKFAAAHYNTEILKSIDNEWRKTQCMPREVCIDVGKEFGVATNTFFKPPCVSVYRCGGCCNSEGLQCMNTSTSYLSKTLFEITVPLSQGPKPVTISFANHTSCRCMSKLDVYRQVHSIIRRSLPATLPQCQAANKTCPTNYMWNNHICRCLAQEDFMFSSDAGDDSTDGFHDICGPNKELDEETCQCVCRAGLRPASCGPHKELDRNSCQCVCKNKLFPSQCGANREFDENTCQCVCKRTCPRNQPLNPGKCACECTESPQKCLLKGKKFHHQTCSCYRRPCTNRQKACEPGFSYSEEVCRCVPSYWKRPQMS"}, "source": "patent US20040214766A1", "key": {"[1]": {"target": "T1, NRP-1-Fc construct (extracellular domain portion of murine NRP-1 fused to the Fc portion of human IgG1) (murine; human) (UniProt P97333)", "T1 sequence": "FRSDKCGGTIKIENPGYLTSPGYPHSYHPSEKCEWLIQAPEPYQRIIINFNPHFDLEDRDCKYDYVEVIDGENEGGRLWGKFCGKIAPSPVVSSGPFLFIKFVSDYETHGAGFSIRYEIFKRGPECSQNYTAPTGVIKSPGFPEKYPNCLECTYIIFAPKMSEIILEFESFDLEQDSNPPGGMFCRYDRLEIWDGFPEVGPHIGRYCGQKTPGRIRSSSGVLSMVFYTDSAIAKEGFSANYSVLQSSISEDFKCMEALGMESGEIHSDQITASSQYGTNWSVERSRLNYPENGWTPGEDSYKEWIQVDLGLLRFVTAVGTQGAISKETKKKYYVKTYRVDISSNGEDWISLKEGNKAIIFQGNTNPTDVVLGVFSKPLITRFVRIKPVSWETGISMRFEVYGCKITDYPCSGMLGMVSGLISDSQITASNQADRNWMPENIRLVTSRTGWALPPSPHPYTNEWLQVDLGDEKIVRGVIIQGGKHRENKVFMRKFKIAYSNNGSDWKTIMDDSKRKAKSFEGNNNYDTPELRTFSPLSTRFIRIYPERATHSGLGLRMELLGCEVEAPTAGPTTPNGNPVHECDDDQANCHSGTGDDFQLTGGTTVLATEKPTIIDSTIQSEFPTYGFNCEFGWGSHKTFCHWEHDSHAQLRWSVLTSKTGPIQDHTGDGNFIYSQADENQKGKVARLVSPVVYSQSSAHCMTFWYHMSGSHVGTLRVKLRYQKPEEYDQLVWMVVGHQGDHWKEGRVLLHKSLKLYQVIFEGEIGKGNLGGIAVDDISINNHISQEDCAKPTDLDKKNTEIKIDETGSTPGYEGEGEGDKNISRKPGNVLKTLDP", "assay": "pull-down of 35S-labeled VEGF165 medium with NRP-1-IgG and Protein A-Sepharose, with and without heparin"}, "[2]": {"target": "T1, NRP-1-Fc construct (extracellular domain portion of murine NRP-1 fused to the Fc portion of human IgG1) (murine; human)", "assay": "pull-down of 35S-labeled VEGF-C medium with NRP-1-IgG and Protein A-Sepharose, SDS-PAGE"}, "[3]": {"target": "hNRP-2 a17-IgG fusion protein (extracellular domain of human neuropilin-2, a17 isoform, fused to the human IgG1 Fc tail) (human) [IgG part: P01857]", "assay": "pull-down of 35S-labeled VEGF-C medium with hNRP-2 a17-IgG and Protein A-Sepharose, SDS-PAGE"}, "[4]": {"target": "T1, NRP-1-Fc construct (extracellular domain portion of murine NRP-1 fused to the Fc portion of human IgG1) (murine; human)", "assay": "pull-down of 35S-labeled growth factor medium with receptor-IgG fusion and Protein A-Sepharose, SDS-PAGE"}, "[5]": {"target": "hNRP-2 a17-IgG fusion protein (extracellular domain of human neuropilin-2, a17 isoform, fused to the human IgG1 Fc tail) (human) [IgG part: P01857]", "assay": "pull-down of 35S-labeled growth factor medium with receptor-IgG fusion and Protein A-Sepharose, SDS-PAGE"}}, "note": "Results are given in words; binding and its absence hold for the method and conditions named. In cells and extracts the contact can be indirect. Some entries that bind do so weakly or less than the wild type. For some assays here: Sequences can lack the tags named with a protein."}
{"substance": "VEGF165 (from UniProt P15692 27-191) (ligand)", "values": [{"measurement": "binding", "setting": "[1]", "result": "binds"}]}
{"substance": "VEGF-C 29 kD isoform (partially processed form) (from UniProt P49767 32-227) (ligand)", "values": [{"measurement": "binding", "setting": "[2]", "result": "binds"}, {"measurement": "binding", "setting": "[3]", "result": "binds"}]}
{"substance": "VEGF-C (labeled medium of 293EBNA cells transfected with prepro-VEGF-C; mixture of isoforms) (from UniProt P49767 32-419) (ligand)", "values": [{"measurement": "binding", "setting": "[4]", "result": "binds"}, {"measurement": "binding", "setting": "[5]", "result": "binds"}]}
